According to PubChem BioAssay AID504444 (National Center for Advancing Translational Sciences (NCATS), 2011):
Screen size: about 360,000 compounds; about 7,500 (2.1%) were called active. This list was built around the results that the source calls inconclusive (neither active nor inactive); the mix of calls is not that of the screen. Calls come from the whole dose curve; as a rule, active = well fitted inhibition curve with a large enough effect; inconclusive = small, poorly fitted or top-dose-only effect, or effect the other way; inactive = flat fitted curve, though single readings scatter. Potencies of inconclusive entries are doubtful fits and often do not repeat.

experiment: Nrf2 qHTS screen for inhibitors; details: A549 ARE-Fluc reporter, luciferase luminescence, 18-24 h; activity change, negative = inhibition: at 46 µM (top of the series); note: nearly all actives have a fitted effect of over 60% in size
How it was run: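 Reporter: ARE-Fluc in A549. Exposure: 18-24 h, 37 °C, 5% CO2, 5% FBS OPTI-MEM. Readouts: fluorescent cytotoxicity (CellTiter-Fluor), then luminescent Nrf2 signal after BugLite.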
% is set by controls: 0 for no effect and ±100 for the full control effect; potency is the fitted concentration of half-maximal effect.

| Compound | Potency | activity change, negative = inhibition |
| --- | --- | --- |
| CCN(CC)S(=O)(=O)c1cccc(C(=O)N/N=C(\C)c2cccs2)c1 | inconclusive: 5.8 µM [activator, full curve] | – |
| Cc1ccn2c(Nc3ccc(C(C)C)cc3)c(-c3cccs3)nc2c1 | inconclusive: 5.8 µM [activator, full curve] | – |
| COc1cc(OC)c(NC(=O)C2=C(C)C(=O)OC23CCCCCC3)cc1Cl | inconclusive: 16.4 µM [activator, partial curve, poor fit] | – |
| CC12COC3(P(=O)(c4ccccc4)c4ccccc4)CC1CCC23CP(=O)(c1ccccc1)c1ccccc1 (stereo not given) | inconclusive: 18.4 µM [falling, single point] | – |
| CCOC(=O)C1=C(O)/C(=C/c2cn(CC(=O)N3CCCC3)c3ccccc23)SC1=Nc1ccccc1 | inconclusive: 9.2 µM [falling, partial curve, poor fit] | – |
| O=S(=O)(c1ccc2nc(SCc3ccc(Cl)cc3)[nH]c2c1)N1CCOCC1 | active: 23.1 µM | – |
| Cc1nc2ccc(NC(=O)Cc3cccs3)cc2s1 | inconclusive: 3.66 µM [activator, partial curve] | – |
| O=c1[nH]c(NNC(=S)NC2CCCCC2)nc2c1C1(CCCC1)Cc1ccccc1-2 | inconclusive: 29.1 µM [activator, single point] | – |
| CC(C)COc1ccc(C(=O)Nc2scc(-c3ccc(Cl)cc3Cl)c2C(N)=O)cc1 | inconclusive: 9.2 µM [falling, partial curve] | – |
| Cc1cccc2sc(NC(=O)CN(C)S(=O)(=O)c3cccs3)nc12 | inconclusive: 23.1 µM [falling, single point] | – |
| Cc1c(C)n2c(SCC(=O)N3CCOCC3)nnc2[nH]c1=O | inconclusive: 18.4 µM [activator, partial curve, poor fit] | – |
| O=C(NNC1=NS(=O)(=O)c2ccccc21)c1ccc([N+](=O)[O-])cc1 | inconclusive: 10.3 µM [falling, partial curve, poor fit] | – |
| Cc1cc(/C=C2/SC(=S)N(c3cccc(C(F)(F)F)c3)C2=O)c(C)n1-c1cccnc1 | active: 5.8 µM | – |
| Cc1ccc(-n2c(=O)c3c4c(sc3n(CC(=O)c3ccc(Cl)cc3)c2=O)CCC4)cc1C | inconclusive: 2.91 µM [activator, single point] | – |
| COCc1cc(C)nc(N2CCN(c3ccccc3)CC2)c1C#N | inconclusive: 16.4 µM [falling, partial curve, poor fit] | – |
| Cc1nc(SCC(=O)N2CCN(C(=O)c3ccco3)CC2)c2c(C)c(C)sc2n1 | inconclusive: 18.4 µM [falling, partial curve, poor fit] | – |
| Nc1c(C(=O)Nc2nc3ccccc3s2)sc2nc(-c3cccs3)ccc12 | active: 20.6 µM | – |
| COc1cc(OC)c2c(C)c(Cl)c(=O)oc2c1 | – | inactive: -2.29% |
| CCc1ccc2[nH]c(=O)c(CN(Cc3cccs3)Cc3nnnn3Cc3ccccc3)cc2c1 | inconclusive: 23.1 µM [falling, single point] | – |
| COc1ccc(/C=C/C(=O)Oc2ccc(C)cc2)cc1 | inconclusive: 32.6 µM [falling, partial curve, poor fit] | – |

| Compound | Potency | activity change, negative = inhibition |
| --- | --- | --- |
| CC(=O)N1c2ccc(S(=O)(=O)NCC3CCC(C(=O)Nc4ccc(C)cc4)CC3)cc2CC1C (stereo not given) | inconclusive: 32.6 µM [falling, single point] | – |
| Cc1cc(C(=O)CSc2nc(N)cc(=O)[nH]2)c(C)n1-c1ccc(OC(F)F)cc1 | active: 18.4 µM | – |
| Cc1ccc(NC(=O)ON=C2CCCC2)cc1 | inconclusive: 2.91 µM [activator, full curve] | – |
| COc1ccc(-c2nnn(CC(=O)N(C3CCCCC3)C(C)C(=O)NC3CCCC3)n2)cc1OC (stereo not given) | inconclusive: 0.651 µM [falling, partial curve] | – |
| COC(=O)C(NNc1ccccc1)(NC(=O)c1ccccc1F)C(F)(F)F (stereo not given) | inconclusive: 0.103 µM [falling, full curve, poor fit] | – |
| COc1ccc(OC)c(S(=O)(=O)N2CCC(C(=O)Nc3ccccc3)CC2)c1 | inconclusive: 0.92 µM [falling, full curve, poor fit] | – |
| O=c1cc(O)c(-c2ccc(Cl)c(Cl)c2)c(Cl)[nH]1 | inconclusive: 32.6 µM [activator, partial curve, poor fit] | – |
| Cc1cccc(/C=N/NC(=O)NC23CC4CC(CC(C4)C2)C3)n1 | inconclusive: 18.4 µM [activator, single point] | – |
| COc1ccccc1-c1nnc(SCC(=O)Nc2ccccc2F)o1 | inconclusive: 3.26 µM [activator, partial curve] | – |
| Cc1ccc(C(=O)N2CCN(S(=O)(=O)c3ccccc3)CC2)cc1 | inconclusive: 18.4 µM [falling, partial curve, poor fit] | – |
| Cc1ccc2[nH]c(-c3cccc(N)c3)cc2c1 | inconclusive: 20.6 µM [activator, partial curve] | – |
| CCC1CN(C(=O)N2CCC(C(=O)N3CCN(c4cccc(C)c4C)CC3)CC2)c2ccccc2O1 (stereo not given) | – | inactive: -2.95% |
| COCCCNC(=O)c1c[nH]c2ccc(S(=O)(=O)N3CCc4ccccc43)cc2c1=O | inconclusive: 29.1 µM [falling, single point] | – |
| Cc1ccc(Cl)cc1NC(=O)CCC(=O)N1CC(C)Sc2ccccc21 (stereo not given) | – | inactive: -11.4% |
| COc1ccccc1N1CCN(/N=C/c2cccc(Cl)c2)CC1 | inconclusive: 23.1 µM [activator, single point] | – |
| Cc1nc2cc(NC(=O)c3ccc(N4C(=O)CCC4=O)cc3)ccc2s1 | – | inactive: -24.4% |
| CC(=O)Nc1nc2ccccc2n1Cc1ccccc1C | inconclusive: 2.31 µM [activator, partial curve, poor fit] | – |
| COc1ccc(OCCNc2cc(Cl)ccc2[N+](=O)[O-])cc1 | inconclusive: 25.9 µM [falling, single point] | – |
| Cc1nc(C(F)(F)F)ccc1C(=O)NCC(O)c1ccccc1 (stereo not given) | inconclusive: 9.2 µM [activator, partial curve, poor fit] | – |
| C[C@]12CC(O)C3C(CCC4=CC(=O)CC[C@@]43C)C1CCC2c1csc(-c2ccccc2)n1 (stereo not given in full) | inconclusive: 23.1 µM [falling, partial curve, poor fit] | – |

Taken from the listing, 3 compounds:

| Compound | Potency | activity change, negative = inhibition |
| --- | --- | --- |
| Cc1ccc2[nH]c(-c3cccc(N)c3)cc2c1 | inconclusive: 20.6 µM [activator, partial curve] | – |
| CCC1CN(C(=O)N2CCC(C(=O)N3CCN(c4cccc(C)c4C)CC3)CC2)c2ccccc2O1 (stereo not given) | – | inactive: -2.95% |
| COCCCNC(=O)c1c[nH]c2ccc(S(=O)(=O)N3CCc4ccccc43)cc2c1=O | inconclusive: 29.1 µM [falling, single point] | – |
